{"source": "patent US5015631A", "about": "“Repairing agent for cells and tissues” (MECT Corporation, priority 1987, dated 1991)", "system": "mice", "assay": "Simple acute toxicity test by intravenous injection in mice", "format": "in vivo, Male ddy mice", "conditions": "3 mice", "experimental": "Simple acute toxicity test:\nSimple acute toxicity tests of the materials were conducted by intraveous injections for the mice as follows:\nLithium, potassium, barium and magnesium N-acetylneuraminates (products of MECT Corporation) were used.\nWeight of the animal in the initial stage of the test: 17.7 to 21.1 g\nNumber of mice for each level: 3\n(3) Room temperature: 23±1° C., humidity: 55±7%\n(4) Route of administration: intravenous injection\nThe material was dissolved in the physiological saline. The concentration of the dose solution was adjusted so that 0.2 ml of the dose solution was administered per 20 g of the body weight of the mice. The solution was given to a tail of each mouse by the intravenous injection. The dose was 500, 1000 or 2000 mg/kg.\nThe general symptoms and death were observed from immediately after the administration to seven days after the administration.", "note": "Further values from the same series stand in other lists.", "data": [{"smiles": "CC(=O)N[C@H]1[C@H]([C@H](O)[C@H](O)CO)OC(O)(C(=O)O)C[C@@H]1O", "note": "(some centres unmarked) [Magnesium N-acetylneuraminate]", "values": [{"measurement": "Number of death with the elapse of time", "setting": "1000 mg/kg i.v., 1 hr", "result": 3}, {"measurement": "Number of death with the elapse of time", "setting": "1000 mg/kg i.v., 3 hrs", "result": 0}, {"measurement": "Number of death with the elapse of time", "setting": "1000 mg/kg i.v., 6 hrs", "result": 0}, {"measurement": "Number of death with the elapse of time", "setting": "1000 mg/kg i.v., 24 hrs", "result": 0}, {"measurement": "Number of death with the elapse of time", "setting": "1000 mg/kg i.v., 2 days", "result": 0}, {"measurement": "Number of death with the elapse of time", "setting": "1000 mg/kg i.v., 3 days", "result": 0}, {"measurement": "Number of death with the elapse of time", "setting": "1000 mg/kg i.v., 4 days", "result": 0}, {"measurement": "Number of death with the elapse of time", "setting": "1000 mg/kg i.v., 5 days", "result": 0}, {"measurement": "Number of death with the elapse of time", "setting": "1000 mg/kg i.v., 6 days", "result": 0}, {"measurement": "Number of death with the elapse of time", "setting": "1000 mg/kg i.v., 7 days", "result": 0}, {"measurement": "Number of death with the elapse of time", "setting": "2000 mg/kg i.v., 1 hr", "result": 3}, {"measurement": "Number of death with the elapse of time", "setting": "2000 mg/kg i.v., 3 hrs", "result": 0}, {"measurement": "Number of death with the elapse of time", "setting": "2000 mg/kg i.v., 6 hrs", "result": 0}, {"measurement": "Number of death with the elapse of time", "setting": "2000 mg/kg i.v., 24 hrs", "result": 0}, {"measurement": "Number of death with the elapse of time", "setting": "2000 mg/kg i.v., 2 days", "result": 0}, {"measurement": "Number of death with the elapse of time", "setting": "2000 mg/kg i.v., 3 days", "result": 0}, {"measurement": "Number of death with the elapse of time", "setting": "2000 mg/kg i.v., 4 days", "result": 0}, {"measurement": "Number of death with the elapse of time", "setting": "2000 mg/kg i.v., 5 days", "result": 0}, {"measurement": "Number of death with the elapse of time", "setting": "2000 mg/kg i.v., 6 days", "result": 0}, {"measurement": "Number of death with the elapse of time", "setting": "2000 mg/kg i.v., 7 days", "result": 0}]}]}
